# Laboratory results reported in patent US20160213742A1, “COMPOSITIONS AND METHODS FOR THE TREATMENT OF FUNGAL INFECTIONS” (priority 2013, published 2016).
# At least one compound was matched to its structure with a doubt left.
# Columns and labels:
# Format in all cases: cell-based
# [1] = system: Neutrophils purified from human peripheral blood; test: Human Neutrophil Transwell Migration Assay; details: 37° C., 45 minutes, % of the maximum migration possible
# Text: Neutrophils were purified from human peripheral blood utilizing PolymorphPrep. Red blood cells were lysed with a lysis buffer and the cells were washed, counted and resuspended in assay buffer. Neutrophils (approximately 50,000 to 100,000 in number) were placed over 5-micon pore sized transwell plates in 24-well format with test compounds in the bottom chamber of each well. A negative control of media alone in the bottom chamber was set up in triplicate. A positive control where the neutrophils were added directly to the bottom well was set up in triplicate.
# The plates were incubated at 37° C. for 45 minutes to allow for migration. After this time, migration was confirmed visually and then an aliquot (⅙^th of total cells) from each well was taken for ATP detection via luminescence with ATPlite (PerkinElmer) to quantify the number of migrated cells. The averaged reading for random migration detected in the negative control was subtracted from all readings to obtain the corrected migration number. These numbers were then divided by the averaged reading from the positive control to get the % Neutrophil Migration of the maximum migration possible.
# A. fumigatus MX 5944 = test: MEC assay (Example 31); details: RPMI pH 7.0, 35° C., 24-48 hr
# Description: (§1) The test organisms consisted of strains from the Micromyx collection. Reference isolates were originally received from the American Type Culture Collection (ATCC; Manassas, Va.). Organisms received at Micromyx were initially streaked for isolation on Sabouraud dextrose or potato dextrose agar. Colonies were picked by swab from the medium and resuspended in the appropriate broth containing cryoprotectant. The suspensions were aliquoted into cryogenic vials and maintained at −80° C. Prior to testing, Candida isolates were streaked from the frozen vials on Sabouraud dextrose agar. The yeast isolates were incubated at overnight at 35° C. before use. The fungal isolates were incubated at least 7 days on Sabouraud dextrose agar slants at 35° C. before harvesting.
# (§2) Isolates were tested in RPMI medium (Catalog No. SH30011.04; Lot No. AWA92121B; HyClone Labs, Logan, Utah) which was prepared according to CLSI guidelines. The pH of the medium was adjusted to 7.0 with 1 N NaOH. The medium was sterile filtered using a 0.2 μm PES filter and stored at 4° C. until used.
# (§3) The MIC assay method employed automated liquid handlers to conduct serial dilutions and liquid transfers. Automated liquid handlers included the Multidrop 384 (Labsystems, Helsinki, Finland), Biomek 2000 and Biomek FX (Beckman Coulter, Fullerton Calif.). The wells in columns 2-12 in standard 96-well microdilution plates (Costar 3795) were filled with 150 μl of the correct diluent (50% DMSO for investigational compounds, 100% DMSO for comparator compounds). These would become the mother plates' from which ‘daughter’ or test plates would be prepared. Stocks were diluted to 40× the desired top concentration in the test plates in the indicated solvent, and 300 μL of the 40× stock was dispensed into the appropriate well in Column 1 of the mother plates. The Biomek 2000 was used to make serial serial 2-fold dilutions through Column 11 in the “mother plate”. The wells of Column 12 contained no drug and served as the organism growth control wells.
# (§4) The daughter plates were loaded with 185 μL per well of RPMI described above using the Multidrop 384. The daughter plates were prepared using the Biomek FX which transferred 5 μL of drug solution from each well of a mother plate to the corresponding well of the daughter plate in a single step.
# (§5) A standardized inoculum of each organism was prepared. For Candida, colonies were picked from the streak plate and a suspension was prepared in RPMI medium equal to a 0.5 McFarland standard, then diluted 1:100 in RPMI and transferred to compartments of sterile reservoirs divided by length (Beckman Coulter). For the Aspergillus isolates, previously prepared and quantitated suspensions were used to make dilutions in RPMI to reach 20× the final concentration. These dilutions were also transferred to compartments of sterile reservoirs divided by length (Beckman Coulter). […]
# (§6) The Biomek 2000 was used to inoculate the plates. […] The final concentration of DMSO in the test well was 2.5% for the evaluated comparators and 1.25% for the investigational agents.
# (§7) Plates were stacked 3 high, covered with a lid on the top plate, placed into plastic bags, and incubated at 35° C. for approximately 24-48 hr prior to reading. Plates were read when inoculum was confluent in growth wells. […] MICs were read where visible growth of the organism was inhibited. MECs were read where the growth shifted to a small, rounded, compact hyphal form as compared to the hyphal growth seen in the growth control well.
# A. fumigatus MYA-3626 = test: MEC assay (Example 31); details: RPMI pH 7.0, 35° C., 24-48 hr
# Description: as §1, §2, §3, §4, §5, §6, §7
# A. fumigatus MYA-4609 = test: MEC assay (Example 31); details: RPMI pH 7.0, 35° C., 24-48 hr
# Description: as §1, §2, §3, §4, §5, §6, §7
# A. fumigatus ATCC 13073 = test: MEC assay (Example 31); details: RPMI pH 7.0, 35° C., 24-48 hr
# Description: as §1, §2, §3, §4, §5, §6, §7
# A. flavus MX 5948 = test: MEC assay (Example 31); details: RPMI pH 7.0, 35° C., 24-48 hr
# Description: as §1, §2, §3, §4, §5, §6, §7
smiles,measurement,setting,value
CC[C@H](C)C[C@H](C)CCCCCCCCC(=O)N[C@H]1C[C@@H](O)[C@@H](NCCNC(=O)C(Cc2ccccc2)NC(=O)C(CC(C)C)NC(=O)C(CCSC)NC(=O)Nc2ccc(Cl)cc2)NC(=O)[C@@H]2[C@@H](O)CCN2C(=O)[C@H]([C@H](O)CCN)NC(=O)[C@H]([C@H](O)[C@@H](O)c2ccc(O)cc2)NC(=O)[C@@H]2C[C@@H](O)CN2C(=O)[C@H]([C@@H](C)O)NC1=O (stereo partly shown) [Compound 13a],% Neutrophil Migration,[1]; conc 0.001 μg/mL,9.1%
same,% Neutrophil Migration,[1]; conc 0.01 μg/mL,37.1%
same,% Neutrophil Migration,[1]; conc 0.1 μg/mL,8.5%
same,% Neutrophil Migration,[1]; conc 1 μg/mL,−7.3%
same,% Neutrophil Migration,[1]; conc 10 μg/mL,−7.6%
same,MEC,A. fumigatus MX 5944,0.25 µg/mL
same,MEC,A. fumigatus MYA-3626,0.25 µg/mL
same,MEC,A. fumigatus MYA-4609,0.12 µg/mL
same,MEC,A. fumigatus ATCC 13073,0.12 µg/mL
same,MEC,A. flavus MX 5948,0.12 µg/mL
